The results in this text go back to publication PMC6134028.

Sequences of proteins named here, by UniProt entry; tags and fusion partners are left off. A change or cut given only in a name is not applied to a line headed by its entry. Residues count along the entry.
UniProt P35637: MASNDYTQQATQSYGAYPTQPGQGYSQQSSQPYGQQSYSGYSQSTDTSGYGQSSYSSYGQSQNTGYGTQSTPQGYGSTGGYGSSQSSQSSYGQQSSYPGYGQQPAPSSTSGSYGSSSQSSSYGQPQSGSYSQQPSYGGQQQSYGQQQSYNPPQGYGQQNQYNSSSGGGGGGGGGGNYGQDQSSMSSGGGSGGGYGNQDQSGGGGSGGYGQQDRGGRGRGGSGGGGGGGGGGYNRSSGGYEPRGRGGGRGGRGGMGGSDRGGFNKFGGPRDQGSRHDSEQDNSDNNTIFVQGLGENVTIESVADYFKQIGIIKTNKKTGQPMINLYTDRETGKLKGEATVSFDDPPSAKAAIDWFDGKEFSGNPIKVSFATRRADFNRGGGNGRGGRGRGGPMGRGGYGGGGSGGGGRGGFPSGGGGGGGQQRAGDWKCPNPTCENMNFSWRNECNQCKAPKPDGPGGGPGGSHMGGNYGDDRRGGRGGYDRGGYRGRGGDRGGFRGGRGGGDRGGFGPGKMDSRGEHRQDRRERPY
GST-FUS aa465-526: residues 465-526 of P35637
UniProt P18887: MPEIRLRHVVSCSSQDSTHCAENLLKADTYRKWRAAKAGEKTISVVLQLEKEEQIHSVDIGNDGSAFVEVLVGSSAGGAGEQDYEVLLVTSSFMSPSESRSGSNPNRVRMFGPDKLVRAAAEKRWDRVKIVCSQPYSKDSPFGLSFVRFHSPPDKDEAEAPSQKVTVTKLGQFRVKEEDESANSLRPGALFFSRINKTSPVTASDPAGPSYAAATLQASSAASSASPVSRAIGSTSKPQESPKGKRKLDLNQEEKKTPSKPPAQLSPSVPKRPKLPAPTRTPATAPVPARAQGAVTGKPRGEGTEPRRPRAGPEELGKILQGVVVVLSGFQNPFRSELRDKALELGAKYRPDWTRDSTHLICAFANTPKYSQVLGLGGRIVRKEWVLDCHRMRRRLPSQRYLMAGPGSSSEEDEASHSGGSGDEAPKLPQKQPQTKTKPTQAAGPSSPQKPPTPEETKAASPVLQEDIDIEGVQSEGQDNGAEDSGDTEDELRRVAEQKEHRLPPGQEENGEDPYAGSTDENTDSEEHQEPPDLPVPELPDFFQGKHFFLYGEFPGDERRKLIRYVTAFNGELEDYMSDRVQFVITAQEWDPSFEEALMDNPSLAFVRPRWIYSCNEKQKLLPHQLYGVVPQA
UniProt P09874: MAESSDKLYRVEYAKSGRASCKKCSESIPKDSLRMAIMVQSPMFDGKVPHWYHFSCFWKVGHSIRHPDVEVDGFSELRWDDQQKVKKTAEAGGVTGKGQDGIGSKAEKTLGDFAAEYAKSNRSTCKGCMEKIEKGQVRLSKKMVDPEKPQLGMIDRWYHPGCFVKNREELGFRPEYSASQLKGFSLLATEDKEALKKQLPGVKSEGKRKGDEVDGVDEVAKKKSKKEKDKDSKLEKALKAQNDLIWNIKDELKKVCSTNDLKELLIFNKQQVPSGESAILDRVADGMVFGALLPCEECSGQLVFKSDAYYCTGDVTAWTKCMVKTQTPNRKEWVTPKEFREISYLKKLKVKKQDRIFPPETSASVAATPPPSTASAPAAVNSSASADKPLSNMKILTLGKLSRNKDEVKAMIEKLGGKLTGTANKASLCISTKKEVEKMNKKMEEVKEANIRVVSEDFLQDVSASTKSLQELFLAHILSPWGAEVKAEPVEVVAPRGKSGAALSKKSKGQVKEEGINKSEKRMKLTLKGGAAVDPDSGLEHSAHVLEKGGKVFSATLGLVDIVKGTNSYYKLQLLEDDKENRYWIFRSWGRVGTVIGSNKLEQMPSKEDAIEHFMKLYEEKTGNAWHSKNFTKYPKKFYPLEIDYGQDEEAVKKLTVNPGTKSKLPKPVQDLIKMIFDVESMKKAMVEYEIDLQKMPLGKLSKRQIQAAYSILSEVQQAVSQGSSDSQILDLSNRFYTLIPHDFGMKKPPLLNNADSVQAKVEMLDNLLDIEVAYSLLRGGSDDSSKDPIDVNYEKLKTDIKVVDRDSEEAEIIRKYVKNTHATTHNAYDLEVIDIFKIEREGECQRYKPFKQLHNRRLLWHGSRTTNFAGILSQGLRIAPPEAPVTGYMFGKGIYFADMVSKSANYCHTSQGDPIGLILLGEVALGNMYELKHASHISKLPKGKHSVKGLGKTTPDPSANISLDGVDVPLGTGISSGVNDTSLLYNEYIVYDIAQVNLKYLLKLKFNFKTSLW
UniProt Q13426: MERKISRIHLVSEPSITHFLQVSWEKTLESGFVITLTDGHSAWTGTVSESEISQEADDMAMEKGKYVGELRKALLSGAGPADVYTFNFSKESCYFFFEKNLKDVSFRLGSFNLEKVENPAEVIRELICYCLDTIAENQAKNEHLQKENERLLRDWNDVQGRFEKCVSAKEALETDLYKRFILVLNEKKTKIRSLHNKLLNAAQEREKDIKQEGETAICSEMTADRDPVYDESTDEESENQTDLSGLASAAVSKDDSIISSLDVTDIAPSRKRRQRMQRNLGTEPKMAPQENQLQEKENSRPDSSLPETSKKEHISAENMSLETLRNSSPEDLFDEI
UniProt Q9NUW8: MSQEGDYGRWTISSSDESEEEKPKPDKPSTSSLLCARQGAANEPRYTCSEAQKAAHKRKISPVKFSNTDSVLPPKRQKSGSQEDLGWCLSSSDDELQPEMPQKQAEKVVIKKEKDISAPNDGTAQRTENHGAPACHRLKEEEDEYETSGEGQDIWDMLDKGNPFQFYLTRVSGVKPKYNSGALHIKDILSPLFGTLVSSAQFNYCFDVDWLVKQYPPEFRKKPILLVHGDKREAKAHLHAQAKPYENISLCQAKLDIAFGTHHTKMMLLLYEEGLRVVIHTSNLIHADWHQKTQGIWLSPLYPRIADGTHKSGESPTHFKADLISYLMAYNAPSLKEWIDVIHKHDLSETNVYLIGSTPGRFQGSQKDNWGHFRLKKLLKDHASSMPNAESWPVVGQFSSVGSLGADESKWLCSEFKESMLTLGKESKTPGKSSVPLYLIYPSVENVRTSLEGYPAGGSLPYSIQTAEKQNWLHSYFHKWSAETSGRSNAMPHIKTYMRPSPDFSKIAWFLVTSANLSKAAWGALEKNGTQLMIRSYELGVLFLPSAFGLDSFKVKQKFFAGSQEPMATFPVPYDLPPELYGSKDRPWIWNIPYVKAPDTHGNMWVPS

No constants are given. Whether binding was seen depends on the method and setting. For some of these results: In cells and extracts the contact can be indirect. Some entries that bind do so weakly or less than the wild type.

One test addresses Flag-FUS WT (human) (UniProt P35637). In words: co-IP; anti-Flag IP from HEK293 cells expressing Flag-FUS, with or without GO (100 ng/ml for 1 h), immunoblot.
Test [1] deals with XRCC1, endogenous (human (endogenous in HEK293, SH-SY5Y, iPSCs, motor neurons, fibroblasts)) (UniProt P18887). In words: co-IP; reciprocal co-IP with the XRCC1 antibody, immunoblot for FUS (Supplementary Fig. 2b). In general terms: Immunoblotting shows a protein as a band on a membrane.
The target in test [2] is Fused in Sarcoma (FUS), endogenous (human (endogenous in SH-SY5Y and iPSC-derived motor neurons)) (UniProt P35637). In words: co-IP; IP with a FUS antibody from extracts of cells treated with or without the PARP1 inhibitor AG-14361 (Supplementary Fig. 9a).
The target in test [3] is poly(ADP-ribose) polymerase 1 (PARP1), endogenous (human (endogenous in HEK293, SH-SY5Y, iPSCs, motor neurons, fibroblasts)) (UniProt P09874). In words: co-IP; endogenous co-IP from WT or FUS mutant (R521H, P525L) patient-derived fibroblast lines, immunoblot (text: PARP1 IP; legend: XRCC1 co-IP).
For test [4] the target is unchanged. In words: proximity ligation; PLA of PARP1 vs XRCC1 in motor neurons after GO treatment (text: FUS KD cells; legend: WT or FUS mutant patient-derived motor neurons).
The target in test [5] is Fused in Sarcoma (FUS), endogenous (human (endogenous in SH-SY5Y and iPSC-derived motor neurons)) (UniProt P35637). In words: proximity ligation; Duolink PLA of FUS vs PARP1, XRCC1 or LigIII in differentiated SH-SY5Y cells, with or without GO; controls with XRCC1 or LigIII siRNA.
The target is the same in test [6]. In words: co-IP; anti-FUS IP of endogenous FUS from differentiated SH-SY5Y cells, with or without GO, immunoblot.
Test [7] has the same target. In words: co-IP; anti-FUS IP of endogenous FUS from iPSC-derived motor neurons, with or without GO, immunoblot.
Test [8] has the same target. In words: proximity ligation; Duolink PLA of FUS vs PARP1, XRCC1 or LigIII in iPSC-derived motor neurons, with or without GO.
Test [9] has as its target GST-FUS aa465-526 (human) (UniProt P35637). In words: pull-down; domain mapping with GST-fused FUS domain polypeptides and XRCC1 (Supplementary Fig. 3, not shown); both purified.
The target of the next test is GST-FUS (human) (UniProt P35637). In words: pull-down; GST-FUS with the partner at 4 C overnight on glutathione affinity gel, washed three times with TEN buffer (20 mM Tris-HCl pH 7.4, 0.1 mM EDTA, 100 mM NaCl), immunoblot; for XRCC1 also in the presence of PARP-1 and NAD+ (PARylation enhanced the interaction); both purified.
For test [10], the target named is Fused in Sarcoma (FUS), endogenous (human (endogenous in SH-SY5Y and iPSC-derived motor neurons)) (UniProt P35637). In words: proximity ligation; PLA of FUS vs PARP-1 in cells with or without AG-14361 (Supplementary Fig. 9b).

As to “DNA ligase complex XRCC4/LigIV, endogenous (from UniProt Q13426 1-336; P49917 1-911)”, in the test with Flag-FUS WT (human), the binding entry was “no binding”.

Take “Fused in Sarcoma (FUS), endogenous (from UniProt P35637 1-526)”: in test [1], the binding result was “binds”.

In the case of “TDP1, endogenous (from UniProt Q9NUW8 1-608) (enzyme)”, the binding entry with Flag-FUS WT (human) is listed as “no binding”.

With “XRCC1, endogenous (from UniProt P18887 1-633)”, the binding result in test [2], in [3], in test [4], in test [5], in test [6] and in test [7] was “binds” throughout. In addition, the binding result (in test [8]; with Flag-FUS WT (human)) was “binds” throughout.

For “XRCC1, purified from insect cells (from UniProt P18887 1-633)”, the binding result in [9] is given as “binds weakly”; with GST-FUS (human), “binds”.

In the case of “poly(ADP-ribose) polymerase 1 (PARP1), endogenous (from UniProt P09874 1-1014)”, the binding entry (in [10]; in [5]; in test [6]; in test [7]; in [8]; with Flag-FUS WT (human)) was “binds” throughout.
